Binding data for 2 molecules are collected here from article PMC4923944.

Amino acid sequences for entries named in this document (tags omitted).
UniProt P12004: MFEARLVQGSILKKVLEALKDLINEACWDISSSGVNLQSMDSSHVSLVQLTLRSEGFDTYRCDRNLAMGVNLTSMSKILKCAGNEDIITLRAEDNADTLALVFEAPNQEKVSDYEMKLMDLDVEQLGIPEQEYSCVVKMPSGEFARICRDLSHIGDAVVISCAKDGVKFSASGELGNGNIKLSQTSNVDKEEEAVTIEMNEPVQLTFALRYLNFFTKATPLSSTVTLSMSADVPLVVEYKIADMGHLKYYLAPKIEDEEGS

Experiment [1] has as its target T1, GST-TRAIP fusion protein (human) (UniProt Q9BWF2).
T1 sequence: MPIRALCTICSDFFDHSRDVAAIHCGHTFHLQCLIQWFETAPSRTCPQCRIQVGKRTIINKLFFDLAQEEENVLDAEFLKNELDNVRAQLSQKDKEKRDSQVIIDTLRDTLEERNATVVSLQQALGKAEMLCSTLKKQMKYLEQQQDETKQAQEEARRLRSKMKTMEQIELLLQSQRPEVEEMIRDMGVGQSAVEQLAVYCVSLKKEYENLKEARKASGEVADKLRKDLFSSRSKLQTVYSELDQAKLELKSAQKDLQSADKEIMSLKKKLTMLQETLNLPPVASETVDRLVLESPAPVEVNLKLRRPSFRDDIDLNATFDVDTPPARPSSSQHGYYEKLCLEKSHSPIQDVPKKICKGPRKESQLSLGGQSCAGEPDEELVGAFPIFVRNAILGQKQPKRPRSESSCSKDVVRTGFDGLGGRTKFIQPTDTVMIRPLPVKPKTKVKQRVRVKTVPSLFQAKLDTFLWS
The experiment is described as follows: pull-down; GST-TRAIP or GST on GST beads incubated with 293T lysate at 4 °C for 4 h; washed with NETN buffer; western blot; only the target purified. On the technique in general: A western blot detects proteins with antibodies after separation by electrophoresis.

Experiment [2] has as its target T2, TRAIP, endogenous (human (endogenous in 293T)) (UniProt Q9BWF2).
T2 sequence: T1 sequence
Briefly: co-IP; endogenous proteins; 293T cells with or without HU (5 mM, 4 h); immunoprecipitation with anti-TRAIP sera or pre-bleed control; western blot.

Another experiment has as its target His-tagged PCNA (UniProt P12004). Briefly: pull-down; purified His-PCNA on nickel beads incubated for 4 h at 4 °C with NETN lysates of 293T cells transiently transfected with Flag-tagged TRAIP or its mutants; western blot; only the target purified.

These are yes or no findings as the source states them, for the method shown. In cells and extracts the contact can be indirect. Some binding calls cover weakened binding; strength is not graded here. For part of these data: Tags and fused reporters may be left off the sequences shown.

Take “proliferating cell nuclear antigen (PCNA), endogenous (from UniProt P12004 1-261)”: the binding entry in experiment [1] and in experiment [2] was “binds” throughout.

B1: Flag-epitope tagged TRAIP (fused with streptavidin binding peptide and S-protein tag) (protein, UniProt Q9BWF2 1-469)
chain: T1 sequence
As for B1, the binding entry with His-tagged PCNA was “binds”.
